# Results taken from the supplement of paper PMC6411743.
# Protein sequences, listed by entry. Tags and fused reporters are not part of them. Lines headed by an entry give the natural chain unless they say otherwise; changes in a name come on top.
# UniProt Q9NVC6: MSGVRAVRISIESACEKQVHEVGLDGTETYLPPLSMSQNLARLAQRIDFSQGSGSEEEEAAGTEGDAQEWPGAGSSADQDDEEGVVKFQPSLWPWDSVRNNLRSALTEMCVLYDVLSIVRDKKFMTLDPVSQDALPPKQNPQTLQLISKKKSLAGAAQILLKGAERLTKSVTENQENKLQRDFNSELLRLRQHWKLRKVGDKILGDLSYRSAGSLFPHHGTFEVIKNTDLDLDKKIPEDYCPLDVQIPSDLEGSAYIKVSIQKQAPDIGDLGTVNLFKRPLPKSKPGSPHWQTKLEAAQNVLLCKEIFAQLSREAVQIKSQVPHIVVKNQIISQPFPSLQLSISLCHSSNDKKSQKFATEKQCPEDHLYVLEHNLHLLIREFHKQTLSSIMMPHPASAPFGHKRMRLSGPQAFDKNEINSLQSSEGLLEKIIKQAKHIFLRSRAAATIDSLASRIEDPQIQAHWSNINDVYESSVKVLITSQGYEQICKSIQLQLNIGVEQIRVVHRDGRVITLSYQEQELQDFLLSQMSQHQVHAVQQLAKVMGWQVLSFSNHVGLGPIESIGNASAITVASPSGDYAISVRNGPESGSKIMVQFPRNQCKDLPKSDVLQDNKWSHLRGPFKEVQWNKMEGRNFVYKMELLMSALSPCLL
# UniProt Q9P032: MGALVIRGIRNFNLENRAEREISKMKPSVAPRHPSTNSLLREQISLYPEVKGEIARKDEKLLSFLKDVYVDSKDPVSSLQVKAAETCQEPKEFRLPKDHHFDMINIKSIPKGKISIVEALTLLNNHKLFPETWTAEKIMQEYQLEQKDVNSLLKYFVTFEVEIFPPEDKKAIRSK
# UniProt Q9NQG5: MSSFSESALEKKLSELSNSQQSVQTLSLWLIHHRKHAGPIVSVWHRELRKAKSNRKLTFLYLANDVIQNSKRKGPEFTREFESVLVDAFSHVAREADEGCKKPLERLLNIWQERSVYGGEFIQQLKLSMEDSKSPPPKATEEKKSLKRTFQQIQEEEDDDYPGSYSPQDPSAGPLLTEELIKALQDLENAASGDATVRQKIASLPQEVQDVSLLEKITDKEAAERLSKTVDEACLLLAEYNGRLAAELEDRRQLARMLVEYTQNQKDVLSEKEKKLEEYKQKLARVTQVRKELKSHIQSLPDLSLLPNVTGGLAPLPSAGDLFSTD
# UniProt Q9UBF6, whole entry: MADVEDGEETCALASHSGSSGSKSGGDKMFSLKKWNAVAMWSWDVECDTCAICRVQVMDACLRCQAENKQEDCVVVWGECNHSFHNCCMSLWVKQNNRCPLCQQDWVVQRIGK
# UniProt Q9NSI8: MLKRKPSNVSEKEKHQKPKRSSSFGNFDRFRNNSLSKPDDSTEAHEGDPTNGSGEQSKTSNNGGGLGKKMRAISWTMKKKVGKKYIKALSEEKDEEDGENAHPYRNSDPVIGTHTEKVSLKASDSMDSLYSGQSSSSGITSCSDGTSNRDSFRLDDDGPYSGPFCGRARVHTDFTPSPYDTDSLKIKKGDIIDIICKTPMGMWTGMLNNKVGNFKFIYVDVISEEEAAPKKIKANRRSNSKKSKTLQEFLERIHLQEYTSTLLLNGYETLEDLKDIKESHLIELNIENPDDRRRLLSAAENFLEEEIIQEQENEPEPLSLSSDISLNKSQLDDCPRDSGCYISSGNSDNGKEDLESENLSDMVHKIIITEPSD
# UniProt Q9NZJ4: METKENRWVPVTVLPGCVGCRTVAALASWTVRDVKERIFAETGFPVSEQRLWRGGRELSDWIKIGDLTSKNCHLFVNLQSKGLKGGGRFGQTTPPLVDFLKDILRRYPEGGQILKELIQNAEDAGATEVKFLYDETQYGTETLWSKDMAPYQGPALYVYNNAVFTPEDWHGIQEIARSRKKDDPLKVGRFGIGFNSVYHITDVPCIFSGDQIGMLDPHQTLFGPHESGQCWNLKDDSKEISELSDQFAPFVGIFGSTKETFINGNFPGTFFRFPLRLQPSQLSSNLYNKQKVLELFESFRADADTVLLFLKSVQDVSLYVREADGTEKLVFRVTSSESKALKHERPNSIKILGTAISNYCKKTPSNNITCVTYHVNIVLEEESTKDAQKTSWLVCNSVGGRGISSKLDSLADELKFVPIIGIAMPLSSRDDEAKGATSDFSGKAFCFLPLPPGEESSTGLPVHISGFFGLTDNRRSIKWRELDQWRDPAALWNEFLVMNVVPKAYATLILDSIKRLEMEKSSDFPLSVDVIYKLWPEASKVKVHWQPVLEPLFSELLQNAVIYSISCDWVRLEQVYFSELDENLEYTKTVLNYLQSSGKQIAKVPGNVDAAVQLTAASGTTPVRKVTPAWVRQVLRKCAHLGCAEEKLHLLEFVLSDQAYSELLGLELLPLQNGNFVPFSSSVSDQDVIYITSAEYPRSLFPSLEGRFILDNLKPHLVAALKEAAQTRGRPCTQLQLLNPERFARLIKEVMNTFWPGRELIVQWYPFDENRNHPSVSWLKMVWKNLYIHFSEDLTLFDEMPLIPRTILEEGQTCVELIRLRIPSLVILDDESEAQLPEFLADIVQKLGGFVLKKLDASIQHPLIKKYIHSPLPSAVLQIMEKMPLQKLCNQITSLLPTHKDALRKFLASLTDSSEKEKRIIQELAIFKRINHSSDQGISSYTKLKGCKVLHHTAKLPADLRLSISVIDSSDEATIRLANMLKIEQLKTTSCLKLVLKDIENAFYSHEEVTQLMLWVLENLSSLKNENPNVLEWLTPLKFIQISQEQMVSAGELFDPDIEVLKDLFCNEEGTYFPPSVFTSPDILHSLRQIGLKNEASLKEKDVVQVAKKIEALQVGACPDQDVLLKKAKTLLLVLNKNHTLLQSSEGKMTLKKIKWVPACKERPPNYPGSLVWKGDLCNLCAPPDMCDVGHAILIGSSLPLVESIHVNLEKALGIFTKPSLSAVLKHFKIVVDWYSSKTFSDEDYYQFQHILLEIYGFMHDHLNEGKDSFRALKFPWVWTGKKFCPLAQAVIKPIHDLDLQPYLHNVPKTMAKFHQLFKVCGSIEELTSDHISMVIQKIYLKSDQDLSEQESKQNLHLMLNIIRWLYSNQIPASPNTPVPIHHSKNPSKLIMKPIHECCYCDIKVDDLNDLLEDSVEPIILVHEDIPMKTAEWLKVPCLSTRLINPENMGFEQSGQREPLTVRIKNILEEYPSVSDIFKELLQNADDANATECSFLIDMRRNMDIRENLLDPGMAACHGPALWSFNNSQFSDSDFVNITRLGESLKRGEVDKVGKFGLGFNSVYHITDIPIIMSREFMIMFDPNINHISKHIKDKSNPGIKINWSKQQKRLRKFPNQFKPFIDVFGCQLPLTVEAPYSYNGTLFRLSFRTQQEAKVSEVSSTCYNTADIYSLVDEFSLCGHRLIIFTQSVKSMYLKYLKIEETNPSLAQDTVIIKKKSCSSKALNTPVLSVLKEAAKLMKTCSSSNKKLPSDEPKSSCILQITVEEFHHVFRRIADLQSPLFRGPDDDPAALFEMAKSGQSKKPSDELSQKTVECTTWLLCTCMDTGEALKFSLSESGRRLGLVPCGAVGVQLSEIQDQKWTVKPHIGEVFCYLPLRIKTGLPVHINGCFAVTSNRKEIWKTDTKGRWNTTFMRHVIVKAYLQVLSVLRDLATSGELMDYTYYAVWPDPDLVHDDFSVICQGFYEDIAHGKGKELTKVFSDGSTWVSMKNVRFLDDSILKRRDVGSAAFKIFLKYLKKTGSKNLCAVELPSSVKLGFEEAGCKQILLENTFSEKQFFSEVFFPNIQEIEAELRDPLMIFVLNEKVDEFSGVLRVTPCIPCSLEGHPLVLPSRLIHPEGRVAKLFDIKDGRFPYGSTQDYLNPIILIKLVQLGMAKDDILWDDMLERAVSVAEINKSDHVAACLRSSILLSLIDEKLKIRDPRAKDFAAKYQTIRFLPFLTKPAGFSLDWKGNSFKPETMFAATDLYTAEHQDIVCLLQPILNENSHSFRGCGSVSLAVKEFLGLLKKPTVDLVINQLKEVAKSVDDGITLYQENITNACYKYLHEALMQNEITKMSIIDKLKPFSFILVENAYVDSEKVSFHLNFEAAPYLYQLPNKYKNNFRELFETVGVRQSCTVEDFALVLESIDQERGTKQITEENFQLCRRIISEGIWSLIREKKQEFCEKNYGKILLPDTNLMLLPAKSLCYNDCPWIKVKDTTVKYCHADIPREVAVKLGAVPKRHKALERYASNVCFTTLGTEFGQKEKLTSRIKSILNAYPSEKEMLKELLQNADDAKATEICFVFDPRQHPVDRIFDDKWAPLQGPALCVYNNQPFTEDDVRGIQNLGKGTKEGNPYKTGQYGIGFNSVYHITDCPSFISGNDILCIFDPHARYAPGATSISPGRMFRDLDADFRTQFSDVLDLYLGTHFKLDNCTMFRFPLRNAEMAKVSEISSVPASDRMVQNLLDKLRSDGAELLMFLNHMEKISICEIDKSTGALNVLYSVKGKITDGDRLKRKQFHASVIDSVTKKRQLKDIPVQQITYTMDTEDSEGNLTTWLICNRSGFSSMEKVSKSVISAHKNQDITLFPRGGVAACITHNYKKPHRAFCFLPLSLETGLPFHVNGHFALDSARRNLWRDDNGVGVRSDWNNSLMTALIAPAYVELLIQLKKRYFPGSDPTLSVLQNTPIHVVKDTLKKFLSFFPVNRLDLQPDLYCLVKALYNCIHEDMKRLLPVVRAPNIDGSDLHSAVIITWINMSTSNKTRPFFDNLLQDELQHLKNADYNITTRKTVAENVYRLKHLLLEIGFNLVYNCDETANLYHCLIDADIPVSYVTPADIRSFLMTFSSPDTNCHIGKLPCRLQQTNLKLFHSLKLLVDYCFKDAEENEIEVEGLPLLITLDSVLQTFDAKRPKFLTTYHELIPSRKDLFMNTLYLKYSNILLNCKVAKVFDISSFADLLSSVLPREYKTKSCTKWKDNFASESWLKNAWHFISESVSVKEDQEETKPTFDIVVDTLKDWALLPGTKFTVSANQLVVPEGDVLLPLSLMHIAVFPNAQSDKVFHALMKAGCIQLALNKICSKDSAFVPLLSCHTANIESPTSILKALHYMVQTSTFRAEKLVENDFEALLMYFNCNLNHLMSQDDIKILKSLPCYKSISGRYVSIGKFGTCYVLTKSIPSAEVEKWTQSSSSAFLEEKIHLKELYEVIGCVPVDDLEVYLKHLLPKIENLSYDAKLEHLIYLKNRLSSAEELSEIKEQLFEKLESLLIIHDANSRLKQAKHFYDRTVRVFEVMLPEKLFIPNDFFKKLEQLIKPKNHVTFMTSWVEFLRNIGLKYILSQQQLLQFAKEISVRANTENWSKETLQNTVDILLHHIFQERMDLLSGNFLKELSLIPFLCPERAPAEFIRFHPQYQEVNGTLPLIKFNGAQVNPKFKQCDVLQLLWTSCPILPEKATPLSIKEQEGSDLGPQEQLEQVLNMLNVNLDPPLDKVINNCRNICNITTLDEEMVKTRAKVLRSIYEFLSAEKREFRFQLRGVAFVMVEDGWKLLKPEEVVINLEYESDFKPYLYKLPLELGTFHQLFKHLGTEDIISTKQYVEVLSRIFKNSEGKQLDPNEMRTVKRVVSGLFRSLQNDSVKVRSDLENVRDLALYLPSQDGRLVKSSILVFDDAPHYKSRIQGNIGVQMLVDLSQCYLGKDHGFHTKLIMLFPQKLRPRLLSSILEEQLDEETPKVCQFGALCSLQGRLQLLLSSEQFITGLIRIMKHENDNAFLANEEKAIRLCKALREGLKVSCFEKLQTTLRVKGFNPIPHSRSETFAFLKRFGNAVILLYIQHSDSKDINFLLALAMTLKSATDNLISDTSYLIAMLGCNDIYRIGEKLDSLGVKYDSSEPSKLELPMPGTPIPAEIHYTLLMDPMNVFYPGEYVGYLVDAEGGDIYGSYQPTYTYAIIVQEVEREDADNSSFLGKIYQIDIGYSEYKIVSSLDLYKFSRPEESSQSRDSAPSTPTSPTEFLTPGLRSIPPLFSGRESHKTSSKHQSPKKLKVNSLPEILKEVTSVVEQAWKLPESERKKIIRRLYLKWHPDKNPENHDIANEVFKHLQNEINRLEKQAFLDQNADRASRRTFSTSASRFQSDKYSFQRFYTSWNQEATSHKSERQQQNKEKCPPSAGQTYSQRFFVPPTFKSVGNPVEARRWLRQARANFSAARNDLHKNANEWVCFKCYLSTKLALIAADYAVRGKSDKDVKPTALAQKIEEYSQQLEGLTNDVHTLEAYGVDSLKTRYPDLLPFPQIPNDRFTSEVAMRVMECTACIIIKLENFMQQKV
# UniProt Q9NS73: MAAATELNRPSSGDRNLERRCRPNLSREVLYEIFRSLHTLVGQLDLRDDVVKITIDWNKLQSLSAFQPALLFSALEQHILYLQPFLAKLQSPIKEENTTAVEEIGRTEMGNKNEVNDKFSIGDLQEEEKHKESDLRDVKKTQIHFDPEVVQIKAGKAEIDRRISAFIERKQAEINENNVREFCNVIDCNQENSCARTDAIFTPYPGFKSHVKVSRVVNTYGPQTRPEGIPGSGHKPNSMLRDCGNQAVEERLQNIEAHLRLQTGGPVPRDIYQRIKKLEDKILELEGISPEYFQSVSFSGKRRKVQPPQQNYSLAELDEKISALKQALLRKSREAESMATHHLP
# ± gives the standard deviation of the averaged measurements. The entries are a selection whose mix differs from that of the whole data set. Most entries show no effect beyond the scatter of the controls.
# Compound: Nc1ncnc2c1ncn2[C@@H]1O[C@H](COP(=O)(O)OP(=O)(O)NP(=O)(O)O)[C@@H](O)[C@H]1O [adenylyl imidodiphosphate]
# Experiment: NP40-soluble protein abundance relative to vehicle (solubility fold change) (ratio); higher = more soluble protein in presence of AMP-PNP
# Summary of the method: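 Each value is a fold change relative to the detergent-processed vehicle, calculated per replicate from vsn-normalised intensities. Jurkat crude lysate received eight concentrations (0.1 to 10 mM) for 10 min at room temperature and 3 min at 37 °C, then was solubilised in 0.8% NP40 with benzonase (60 min, 4 °C). The ultracentrifuged supernatant was TMT-labelled and run by LC-MS/MS in three independent experiments.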
Target,NP40-soluble protein abundance (concentration: 0.1mM),NP40-soluble protein abundance (concentration: 0.5mM)
MED17 (UniProt Q9NVC6),0.977 ± 0.027,0.942 ± 0.062
UniProt Q9NY93 and related entries,1.01 ± 0.015,1.005 ± 0.0093
UniProt Q9NVH2 and related entries,0.992 ± 0.014,1.01 ± 0.025
SMARCAL1 (UniProt Q9NZC9),0.987 ± 0.021,1 ± 0.014
UniProt Q9NRW4 and related entries,0.989 ± 0.031,0.977 ± 0.011
UniProt Q9P1Z2 and related entries,1.02 ± 0.029,0.982 ± 0.044
UniProt Q9P032,0.978 ± 0.034,1 ± 0.05
RPRD1B (UniProt Q9NQG5),0.966 ± 0.041,0.979 ± 0.044
UniProt Q9NWF9 and related entries,0.997 ± 0.057,0.9909 ± 0.0065
CPSF2 (UniProt Q9P2I0),1.01 ± 0.021,1.02 ± 0.017
SACM1L (UniProt Q9NTJ5),1.03 ± 0.068,0.99 ± 0.053
UniProt Q9NQ88,1 ± 0.015,1.01 ± 0.029
UniProt Q9NW64,1.07 ± 0.087,1.07 ± 0.018
UniProt Q9UBF6 and related entries,1.01 ± 0.036,1 ± 0.03
UniProt Q9NQ86-4|E9PBG3 and related entries,0.9516 ± 0.0068,0.972 ± 0.043
UniProt Q9NV96 and related entries,0.924 ± 0.049,0.9909 ± 0.0088
DDX18 (UniProt Q9NVP1),1.02 ± 0.039,1.01 ± 0.08
UniProt Q9NSI8 and related entries,1.01 ± 0.018,1.01 ± 0.056
UniProt Q9NUP9,1.04 ± 0.022,0.992 ± 0.054
UniProt Q9UBP0 and related entries,1.11 ± 0.092,1.1 ± 0.071
CHMP5 (UniProt Q9NZZ3),0.984 ± 0.08,0.966 ± 0.097
SACS (UniProt Q9NZJ4),0.997 ± 0.053,0.957 ± 0.11
CCDC59 (UniProt Q9P031),0.9609 ± 0.0019,0.979 ± 0.025
SMYD2 (UniProt Q9NRG4),0.982 ± 0.034,0.986 ± 0.034
UniProt Q9NS73 and related entries,1.016 ± 0.0099,1.03 ± 0.028
UniProt Q9NVA1 and related entries,1.02 ± 0.043,0.986 ± 0.037
UniProt Q9NY12 and related entries,1.06 ± 0.052,1 ± 0.059

# Single records, as listed above.
# SMARCAL1 (UniProt Q9NZC9) is listed as NP40-soluble protein abundance (concentration: 0.1mM): 0.987 ± 0.021; NP40-soluble protein abundance (concentration: 0.5mM): 1 ± 0.014
# UniProt Q9UBP0 and related entries is listed as NP40-soluble protein abundance (concentration: 0.1mM): 1.11 ± 0.092; NP40-soluble protein abundance (concentration: 0.5mM): 1.1 ± 0.071
